This experiment addresses T1, FLAG-tagged SpvB (S. Typhimurium strain SL1344) (UniProt P21454).
T1 sequence: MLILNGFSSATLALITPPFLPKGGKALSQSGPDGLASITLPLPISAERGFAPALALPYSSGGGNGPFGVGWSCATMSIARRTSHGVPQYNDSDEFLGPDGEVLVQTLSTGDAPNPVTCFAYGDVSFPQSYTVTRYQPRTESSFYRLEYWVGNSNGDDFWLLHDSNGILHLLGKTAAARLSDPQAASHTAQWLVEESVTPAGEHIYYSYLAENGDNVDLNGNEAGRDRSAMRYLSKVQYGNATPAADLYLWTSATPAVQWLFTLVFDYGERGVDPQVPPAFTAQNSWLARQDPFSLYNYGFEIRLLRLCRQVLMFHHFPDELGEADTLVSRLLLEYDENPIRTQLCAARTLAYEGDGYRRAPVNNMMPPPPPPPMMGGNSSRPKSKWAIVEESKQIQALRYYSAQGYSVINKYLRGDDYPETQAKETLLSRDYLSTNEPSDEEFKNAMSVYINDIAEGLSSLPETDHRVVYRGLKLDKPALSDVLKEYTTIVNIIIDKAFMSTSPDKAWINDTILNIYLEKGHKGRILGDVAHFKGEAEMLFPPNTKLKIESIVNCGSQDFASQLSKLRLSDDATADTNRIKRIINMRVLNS
In words: co-IP.

No constants are given. Whether binding was seen depends on the method and setting. Binding seen in cells or lysates may run through a third protein. Binding can be weak; no strength is given. Sequences can lack the tags named with a protein.

Regarding “AP-1γ (endogenous) (human (endogenous in HEK293T))”, the binding entry is reported as “binds”.

For the origin of these results see publication PMC10696399.
